Measurements from US6849649B2, “N-phenpropylcyclopentyl-substituted glutaramide derivatives as inhibitors of neutral endopeptidase” (Pfizer Inc., priority 2001, dated 2005).
Some results were stated once for a whole list of compounds, not compound by compound.

tested on: ACE; experiment: IC50 against ACE / selectivity over ACE; type: biochemical; conditions: NEP versus ACE

SMILES	selectivity over ACE
CC(CCNC(=O)C1(CCC(=O)O)CCCC1)c1ccc2c(c1)CCO2 (centres unmarked) [Example 51]	greater than 300 fold
O=C(O)CCC1(C(=O)NCCCc2ccc3c(c2)CCO3)CCCC1 [Example 21]	greater than 300 fold
O=C(O)CCC1(C(=O)NCCCc2cccc3ccccc23)CCCC1 [Example 33]	greater than 300 fold
COCC[C@H](CC1(C(=O)NCCCc2ccc3c(c2)OCCO3)CCCC1)C(=O)O [Example 43]	greater than 300 fold
COCCC(CC1(C(=O)NC(C)COc2ccccc2Cl)CCCC1)C(=O)O (centres unmarked) [Example 3]	greater than 300 fold
